No constants are given. Whether binding was seen depends on the method and setting. In cells and extracts the contact can be indirect. Some entries that bind do so weakly or less than the wild type.
Legend:
[1] = molecular target: HA-PKM2 (wild type), expressed in H1299 cells (human) (UniProt P14618); assay: co-IP; HA-PKM2 (WT or mutants) transfected into H1299 cells (also CIP2A-knockdown cells, PKM2-depleted cells, with or without Flag-CIP2A); proteins immunoprecipitated by HA-PKM2, endogenous partners by western blot
[2] = molecular target: shRNA-resistant HA-PKM2 S287A mutant, expressed in PKM2-depleted H1299 cells (human) (UniProt P14618); assay: as above
[3] = molecular target: HA-PKM2 (wild type), expressed in 293T cells (human) (UniProt P14618); assay: co-IP; HA-tagged PKM2 constructs co-transfected with Flag-tagged CIP2A or Flag-tagged B56 subunits into 293T cells; IP of total protein extracts and western blot
[4] = molecular target: HA-PKM2 L218A/V221A (human) (UniProt P14618); assay: co-IP; HA-PKM2 (WT or mutants) transfected into H1299 cells (also CIP2A-knockdown cells, PKM2-depleted cells, with or without Flag-CIP2A); proteins immunoprecipitated by HA-PKM2, endogenous partners by western blot
[5] = molecular target: pyruvate kinase M2 (PKM2), endogenous (human (endogenous in A549 and H1299)) (UniProt P14618); assay: proximity ligation; Duolink in situ PLA on fixed, permeabilised A549 and H1299 cells with primary antibodies to the two endogenous proteins
[6] = molecular target: pyruvate kinase M2 (PKM2), endogenous (human (endogenous in A549 and H1299)) (UniProt P14618); assay: co-IP; endogenous proteins in A549 and H1299 lysates; IP lysis buffer, 2 μg antibody and Protein A/G PLUS-Agarose at 4 °C overnight, five washes, western blot

Sequences of proteins named here, by UniProt entry; tags and fusion partners are left off. A change or cut given only in a name is not applied to a line headed by its entry.
UniProt P14618: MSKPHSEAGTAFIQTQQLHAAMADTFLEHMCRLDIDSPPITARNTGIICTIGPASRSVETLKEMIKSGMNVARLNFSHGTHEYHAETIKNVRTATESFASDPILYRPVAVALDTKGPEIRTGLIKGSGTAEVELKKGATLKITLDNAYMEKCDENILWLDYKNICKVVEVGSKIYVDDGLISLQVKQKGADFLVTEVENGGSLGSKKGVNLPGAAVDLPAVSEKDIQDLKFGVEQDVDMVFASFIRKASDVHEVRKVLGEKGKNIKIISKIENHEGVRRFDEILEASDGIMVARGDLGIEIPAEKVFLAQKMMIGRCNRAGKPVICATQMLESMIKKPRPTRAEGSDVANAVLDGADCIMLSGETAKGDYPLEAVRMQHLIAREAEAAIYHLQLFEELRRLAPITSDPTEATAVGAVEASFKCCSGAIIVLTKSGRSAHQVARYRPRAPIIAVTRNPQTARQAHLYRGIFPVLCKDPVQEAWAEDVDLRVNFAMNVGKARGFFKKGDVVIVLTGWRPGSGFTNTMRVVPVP
UniProt P52294: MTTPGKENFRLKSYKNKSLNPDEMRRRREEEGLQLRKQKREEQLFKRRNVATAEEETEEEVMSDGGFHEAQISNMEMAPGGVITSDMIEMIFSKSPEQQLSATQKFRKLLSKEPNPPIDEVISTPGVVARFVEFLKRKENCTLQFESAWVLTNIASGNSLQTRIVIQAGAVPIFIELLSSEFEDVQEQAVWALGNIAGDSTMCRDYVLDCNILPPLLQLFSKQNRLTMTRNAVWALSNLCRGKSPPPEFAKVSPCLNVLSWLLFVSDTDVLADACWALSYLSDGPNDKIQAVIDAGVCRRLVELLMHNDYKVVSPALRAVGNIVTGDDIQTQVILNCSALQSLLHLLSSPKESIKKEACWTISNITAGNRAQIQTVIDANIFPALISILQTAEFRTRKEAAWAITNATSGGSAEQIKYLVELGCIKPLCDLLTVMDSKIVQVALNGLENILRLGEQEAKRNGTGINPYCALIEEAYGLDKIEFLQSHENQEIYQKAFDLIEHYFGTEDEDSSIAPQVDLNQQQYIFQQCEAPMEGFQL
UniProt Q15172: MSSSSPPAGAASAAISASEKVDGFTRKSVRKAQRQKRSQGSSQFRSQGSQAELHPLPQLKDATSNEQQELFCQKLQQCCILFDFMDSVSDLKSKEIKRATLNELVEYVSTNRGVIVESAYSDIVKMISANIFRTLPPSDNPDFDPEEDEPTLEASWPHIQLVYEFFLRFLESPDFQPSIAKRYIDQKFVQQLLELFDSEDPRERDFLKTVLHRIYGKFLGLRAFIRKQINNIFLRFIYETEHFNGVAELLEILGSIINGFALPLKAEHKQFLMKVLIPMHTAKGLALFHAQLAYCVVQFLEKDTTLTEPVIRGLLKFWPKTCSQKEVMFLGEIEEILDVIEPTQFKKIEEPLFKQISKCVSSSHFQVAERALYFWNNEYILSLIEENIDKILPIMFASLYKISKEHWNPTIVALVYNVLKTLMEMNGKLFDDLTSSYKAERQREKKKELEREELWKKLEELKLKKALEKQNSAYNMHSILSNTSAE

| binding [1] | binding [2] | binding [3] | binding [4] | binding [5] | binding [6] | Substance |
| --- | --- | --- | --- | --- | --- | --- |
| binds | binds |  |  |  |  | importin α5, endogenous (from UniProt P52294 1-538) |
|  |  | binds |  |  |  | Flag-B56α (from UniProt Q15172 1-486) |
| binds |  |  | binds | binds | binds | PP2A regulatory subunit B56α, endogenous (from UniProt Q15172 1-486) |

From publication PMC10847417
